Data source: PubChem BioAssay AID743121 (NCATS, 2013)
This is one part, drawn at random, of about 26,000 deposited reagents. Of all reagents, 167 (0.63%) are marked active. 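Calls are per gene from RSA p-values that are not deposited; an individual active-marked siRNA can sensitise only weakly.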 The numbers tell different reagents against one gene apart. Not all columns of the deposit are shown.

Screen: 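Genes whose silencing strengthens cell killing by camptothecin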 (primary screen)
Cell system: MDA-MB-231 cells, a human breast cancer line
Reagent: single siRNA against human genes, 20 nM siRNA (0.8 pmol per well)
Duration: 120 h (drug added 48 h after transfection, read 72 h later)
Conditions: camptothecin 20 nM (about EC30) for 72 h; vehicle 0.1% DMSO in parallel plates
Read-out: 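Cell viability by ATP luminescence (CellTiter-Glo) as % of non-targeting siRNA wells, and the log2 ratio of viability without drug over viability with camptothecin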
Reading the numbers: log2 vehicle/camptothecin viability: higher = stronger sensitisation to camptothecin; viability with camptothecin: higher = more viable cells
Units: viability with camptothecin in % of control
Hit rule: 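Each gene scored by redundant siRNA activity (RSA) over its individual siRNA ratios; a gene is called active at p < 0.001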

MMP24 (GeneID 10893) #1
- log2 vehicle/camptothecin viability: 0.484
- viability with camptothecin: 14.4
- Call: inactive

MMP24 (GeneID 10893) #2
- log2 vehicle/camptothecin viability: -0.458
- viability with camptothecin: 39.1
- Call: inactive

MMP24 (GeneID 10893) #3
- log2 vehicle/camptothecin viability: -0.0125
- viability with camptothecin: 104
- Call: inactive

MMP24 (GeneID 10893) #4
- log2 vehicle/camptothecin viability: 0.452
- viability with camptothecin: 48
- Call: inactive

SEC62 (GeneID 7095) #1
- log2 vehicle/camptothecin viability: -0.259
- viability with camptothecin: 94.2
- Call: inactive

SEC62 (GeneID 7095) #2
- log2 vehicle/camptothecin viability: 0.373
- viability with camptothecin: 53.5
- Call: inactive

SEC62 (GeneID 7095) #3
- log2 vehicle/camptothecin viability: -0.0949
- viability with camptothecin: 59.1
- Call: inactive

PIP4K2C (GeneID 79837) #1
- log2 vehicle/camptothecin viability: 0.0432
- viability with camptothecin: 86.9
- Call: inactive

PIP4K2C (GeneID 79837) #2
- log2 vehicle/camptothecin viability: -0.244
- viability with camptothecin: 95.6
- Call: inactive

PIP4K2C (GeneID 79837) #3
- log2 vehicle/camptothecin viability: 0.634
- viability with camptothecin: 68.1
- Call: inactive

PIP4K2C (GeneID 79837) #4
- log2 vehicle/camptothecin viability: -0.386
- viability with camptothecin: 73
- Call: inactive

Not a retest: 5 of the entries above.
MMP24 (GeneID 10893) #2
- log2 vehicle/camptothecin viability: -0.458
- viability with camptothecin: 39.1
- Call: inactive

MMP24 (GeneID 10893) #3
- log2 vehicle/camptothecin viability: -0.0125
- viability with camptothecin: 104
- Call: inactive

MMP24 (GeneID 10893) #4
- log2 vehicle/camptothecin viability: 0.452
- viability with camptothecin: 48
- Call: inactive

SEC62 (GeneID 7095) #1
- log2 vehicle/camptothecin viability: -0.259
- viability with camptothecin: 94.2
- Call: inactive

SEC62 (GeneID 7095) #2
- log2 vehicle/camptothecin viability: 0.373
- viability with camptothecin: 53.5
- Call: inactive

The results go on:
IFNGR1 (GeneID 3459) #1
- log2 vehicle/camptothecin viability: 0.0413
- viability with camptothecin: 97.3
- Call: inactive

IFNGR1 (GeneID 3459) #2
- log2 vehicle/camptothecin viability: -0.199
- viability with camptothecin: 107
- Call: inactive

IFNGR1 (GeneID 3459) #3
- log2 vehicle/camptothecin viability: 0.0692
- viability with camptothecin: 80.3
- Call: inactive

IFNGR1 (GeneID 3459) #4
- log2 vehicle/camptothecin viability: 0.0976
- viability with camptothecin: 104
- Call: inactive

HCG22 (GeneID 285834) #1
- log2 vehicle/camptothecin viability: -0.246
- viability with camptothecin: 136
- Call: inactive

HCG22 (GeneID 285834) #2
- log2 vehicle/camptothecin viability: 0.0117
- viability with camptothecin: 94.6
- Call: inactive

HCG22 (GeneID 285834) #3
- log2 vehicle/camptothecin viability: -0.173
- viability with camptothecin: 97.1
- Call: inactive

HCG22 (GeneID 285834) #4
- log2 vehicle/camptothecin viability: -0.292
- viability with camptothecin: 99.6
- Call: inactive

FCSK (GeneID 197258) #1
- log2 vehicle/camptothecin viability: -0.268
- viability with camptothecin: 83.4
- Call: inactive

FCSK (GeneID 197258) #2
- log2 vehicle/camptothecin viability: 0.147
- viability with camptothecin: 64
- Call: inactive

FCSK (GeneID 197258) #3
- log2 vehicle/camptothecin viability: -0.356
- viability with camptothecin: 55.8
- Call: inactive

FCSK (GeneID 197258) #4
- log2 vehicle/camptothecin viability: 0.0644
- viability with camptothecin: 87.2
- Call: inactive

DERA (GeneID 51071) #1
- log2 vehicle/camptothecin viability: 0.0279
- viability with camptothecin: 109
- Call: inactive

DERA (GeneID 51071) #2
- log2 vehicle/camptothecin viability: 0.137
- viability with camptothecin: 82.9
- Call: inactive

DERA (GeneID 51071) #3
- log2 vehicle/camptothecin viability: 0.721
- viability with camptothecin: 46.6
- Call: inactive

DERA (GeneID 51071) #4
- log2 vehicle/camptothecin viability: -0.0205
- viability with camptothecin: 67.3
- Call: inactive

NLRP11 (GeneID 204801) #1
- log2 vehicle/camptothecin viability: -0.0713
- viability with camptothecin: 104
- Call: inactive

NLRP11 (GeneID 204801) #2
- log2 vehicle/camptothecin viability: -0.352
- viability with camptothecin: 119
- Call: inactive

NLRP11 (GeneID 204801) #3
- log2 vehicle/camptothecin viability: -0.301
- viability with camptothecin: 75.6
- Call: inactive

NLRP11 (GeneID 204801) #4
- log2 vehicle/camptothecin viability: -0.647
- viability with camptothecin: 75.1
- Call: inactive

SLC4A4 (GeneID 8671) #1
- log2 vehicle/camptothecin viability: 0.28
- viability with camptothecin: 54.2
- Call: inactive

SLC4A4 (GeneID 8671) #2
- log2 vehicle/camptothecin viability: -0.392
- viability with camptothecin: 85.1
- Call: inactive

SLC4A4 (GeneID 8671) #3
- log2 vehicle/camptothecin viability: -0.0241
- viability with camptothecin: 33.6
- Call: inactive

SLC4A4 (GeneID 8671) #4
- log2 vehicle/camptothecin viability: -0.0356
- viability with camptothecin: 51.8
- Call: inactive
